Assay results published in patent US7947717B2 (priority 2008, dated 2011).
Some results were stated once for a whole list of compounds, not compound by compound.

System: Bacillus anthracis Sterne spores
Parameters: species or system A/J mice
Conditions: mouse, in vivo

O=C(O)CN1C(=O)/C(=C/c2cn(-c3ccc(Cl)cc3)nc2-c2ccc(Cl)cc2)SC1=S [Compound 34, (Z)-2-(5-((1,3-bis(4-chlorophenyl)-1H-pyrazol-4-yl)methylene)-4-oxo-2-thioxothiazolidin-3-yl)acetic acid]
survival of infected mice: > 80%
